Reference: PubChem BioAssay AID504467 (National Center for Advancing Translational Sciences (NCATS), 2011)
The campaign covered roughly 330,000 compounds. About 7,700 (2.3%) were called active. Inconclusive means that the source gave no clear call. Such entries were picked first, then a sample of the others. Calls follow the shape of the dose curve; as a rule, active = well fitted inhibition curve with a large enough effect; inconclusive = small, poorly fitted or top-dose-only effect, or effect the other way; inactive = flat fitted curve, though single readings scatter. Potencies of inconclusive entries are doubtful fits and often do not repeat.

Assay: qHTS screen for small molecules that inhibit ELG1-dependent DNA repair in human embryonic kidney (HEK293T) cells expressing luciferase-tagged ELG1; also: nearly all actives have a fitted effect of over 55% in size
Conditions: HEK293T ELG1-luciferase reporter, luminescence, 16 h, DNA damage induced by 5-fluorouridine; activity change, negative = inhibition: at 46.1 µM (top of the series)
Procedure, shortened: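 In this reporter screen, reduction of luminescence relative to DMSO vehicle indicated activity. Compounds and 5-fluorouridine were added together to 2,000 cells per well, incubated for 16 hr at 37 °C, then developed with ONE-Glo.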
% is scaled to controls: 0 for no effect and ±100 for the full control effect; potency is read from the fitted curve at half-maximal effect.

| SMILES | Potency | activity change, negative = inhibition |
| --- | --- | --- |
| C=CCN(c1ccc(Br)cc1C(=O)OC)S(C)(=O)=O | inconclusive: 5.8 µM [activator, partial curve] | – |
| O=C(CSc1ccccc1)Nc1ccc(S(=O)(=O)Nc2ncccn2)cc1 | inconclusive: 0.0092 µM [inhibitor, full curve, poor fit] | – |
| COc1ccccc1N1CCN(C(=O)c2cn(Cc3ccccc3)nc2-c2cccnc2)CC1 | – | inactive: -23.6% |
| CC1CCCC(C)N1C(=O)COC(=O)c1ccc([N+](=O)[O-])o1 (centres undefined) | – | inactive: 13.1% |
| CCN(CC)C(=O)CSc1nc2ccccc2c(=O)n1CC1CCCCC1 | inconclusive: 20.6 µM [inhibitor, single point] | – |
| O=C(CC1SC(N2CCCCC2)=NC1=O)Nc1cccc(C(=O)Nc2ncccc2O)c1 (centres undefined) | inconclusive: 0.461 µM [activator, partial curve, poor fit] | – |
| CSCCCNC(=O)c1ccc(OC2CCN(CCc3ccccc3)CC2)cc1 | inconclusive: 29.1 µM [activator, single point] | – |
| O=C(Nc1cccc(C(F)(F)F)c1)c1ccc(Cn2cc(Br)cn2)o1 | inconclusive: 20.6 µM [inhibitor, partial curve, poor fit] | – |
| CN1CC(=O)N(CC(=O)NCCc2ccc(F)cc2)c2ccccc2C1=O | – | inactive: -2.13% |
| Cc1ccc2nc(N3CCN(c4cccc(C)c4C)CC3)c3nnnn3c2c1 | – | inactive: 2.01% |
| CN=C1SC(CC(=O)Nc2ccccc2F)C(=O)N1/N=C/c1ccc(O)c(OC)c1 (centres undefined) | active: 2.91 µM | – |
| CCn1c(SCC(=O)N/N=C/C(C)=C\c2ccco2)nnc1-c1ccccc1 | – | inactive: -2.65% |
| CN(C)CCNC(=O)C(c1ccccc1)c1ccccc1 | – | inactive: 1.92% |
| O=C(COC(=O)c1ccccc1Cl)NC1CCCCCC1 | inconclusive: 5.8 µM [activator, single point] | – |
| O=C(COC(=O)/C=C/c1ccco1)NCc1ccccc1Cl | inconclusive: 1.16 µM [inhibitor, single point] | – |
| O=C(/C=C/c1ccc(OC(F)F)cc1)Nc1cccc(S(=O)(=O)NC2=NCCCCC2)c1 | inconclusive: 29.1 µM [inhibitor, single point] | – |
| CC(C)c1ccc(NC(=S)NN2CCOCC2)cc1 | inconclusive: 16.4 µM [activator, partial curve] | – |
| CC1(C)Cc2c(c(N3CCOCC3)nc3sc(C(=O)Nc4ccccc4)c(N)c23)CO1 | inconclusive: 0.73 µM [inhibitor, full curve] | – |
| CCCCN1CC(O)=C(c2nc(-c3ccc(Br)cc3)cs2)C1=N | inconclusive: 29.1 µM [activator, single point] | – |
| COc1ccc(SCCN2CC[C@@H](C(C)(C)C)CCC2=O)cc1 | inconclusive: 29.1 µM [activator, single point] | – |
| CC1=C(C(=O)OC(C)C)C(c2ccc(O)cc2)NC(=O)N1 (centres undefined) | inconclusive: 35.5 µM [activator, single point] | – |
| COc1ccccc1C(C(=O)NC1CCCC1)N(C(=O)c1csnn1)C1CC1 (centres undefined) | inconclusive: 0.164 µM [inhibitor, single point] | – |
| CCN1CCN(C(=S)Nc2cc(S(=O)(=O)N(CC)CC)ccc2C)CC1 | inconclusive: 18.3 µM [inhibitor, single point] | – |

| SMILES | Potency | activity change, negative = inhibition |
| --- | --- | --- |
| COCCn1c(C)cc(C(=O)COC(=O)CCN2C(=O)c3ccccc3C2=O)c1C | – | inactive: 7.92% |
| Cc1nn(Cc2ccc(F)cc2)c(C)c1NC(=O)c1cnn2c1NC(c1cccs1)CC2C(F)(F)F (centres undefined) | inconclusive: 25.9 µM [inhibitor, single point] | – |
| CC1(C)Cc2nc3[nH]c(=S)[nH]c(=O)c3cc2CO1 | – | inactive: 12.4% |
| CC(NC(=O)CN1CCc2ccccc21)c1ccccc1 (centres undefined) | – | inactive: -1.51% |
| COc1ccc(CNC(=O)C[C@H]2C[C@H](C(=O)N(C(C)C)C(C)C)[C@@]3(C)c4[nH]c5ccc(Cl)cc5c4CCN3C2=O)cc1OC | inconclusive: 20.6 µM [inhibitor, single point] | – |
| Cc1cc2cc(C)c3nnc(SCC(=O)N4CCc5ccccc54)n3c2cc1C | inconclusive: 29.1 µM [activator, partial curve, poor fit] | – |
| COc1ccc(C(=O)Nc2cc([N+](=O)[O-])ccc2N2CCCC2)cc1 | – | inactive: -9.61% |
| Cc1cccc(C)c1NC(=O)c1ccc(N2CCCC2=O)cc1 | – | inactive: 13.7% |
| CCOc1ccc(NC(=O)COc2ccc3c(c2)OCO3)cc1 | inconclusive: 20.6 µM [activator, partial curve, poor fit] | – |
| CCOc1ccc(/C=C2\SC(=S)N(CCC(=O)O)C2=O)cc1 | inconclusive: 23.1 µM [activator, single point] | – |
| CC(=O)N(c1cccc(C)c1)C1SC(=O)N(c2ccccc2)C1=O (centres undefined) | – | inactive: 2.16% |
| Cc1cc(NS(=O)(=O)c2ccc(NC(=O)CCCOc3ccc(Cl)cc3)cc2)no1 | inconclusive: 35.5 µM [inhibitor, single point] | – |
| Cc1ccc(-c2noc(CN3CCN(C(c4ccccc4)c4ccccc4)CC3)n2)cc1 | – | inactive: -10.4% |
| Cc1ccc(-n2c(C)cc(/C([O-])=C(/C(=S)Nc3ccc(F)c(Cl)c3)[n+]3ccccc3)c2C)cc1 | – | inactive: -18% |
| O=c1[nH]c(CN2CCN(S(=O)(=O)c3cccs3)CC2)nc2c(Br)cc(Br)cc12 | – | inactive: 19% |
| COc1ccc(C(CNC(=O)c2ccc(OCc3ccccc3)cc2)N2CCOCC2)cc1 (centres undefined) | inconclusive: 14.1 µM [inhibitor, partial curve, poor fit] | – |
| CC(=O)/C(=N\Nc1ccc(Cl)cc1Cl)Sc1cccc2cccnc12 | inconclusive: 29.1 µM [inhibitor, single point] | – |
| CC(C)(C)c1[nH]ncc1[N+](=O)[O-] | inconclusive: 16.4 µM [inhibitor, single point] | – |
| Cc1[nH]n(-c2ccccc2)c(=O)c1C=NCc1ccco1 | inconclusive: 13 µM [activator, partial curve] | – |
| COc1ccc(CN(CC(O)COCc2ccccc2)S(=O)(=O)c2ccccc2Br)cc1OC (centres undefined) | inconclusive: 23.1 µM [inhibitor, partial curve, poor fit] | – |
| COc1ccc(NC(=S)Nc2cccc(S(=O)(=O)N3CCCCC3)c2)cc1 | – | inactive: 3.59% |
| NC(=O)c1ccccc1OC1CCC1 | – | inactive: -12.8% |
| O=C(NCCC(=O)N1O[C@@H]2C=C[C@H]1C2)OCC1c2ccccc2-c2ccccc21 | inconclusive: 29.1 µM [activator, partial curve, poor fit] | – |

| SMILES | Potency | activity change, negative = inhibition |
| --- | --- | --- |
| C#CCOCCOCCOCCNc1nc(N2CCN(C(=O)[C@H]([C@@H](C)O)n3cc(CCCCN)nn3)CC2)nc(N2CCN(C(=O)[C@H](CCCCN)n3cc(CC(C)O)nn3)CC2)n1 (some centres undefined) | – | inactive: 1.18% |
| CNC(=O)c1sc(N2N=C3/C(=C/c4ccccc4)CCCC3C2c2ccccc2)nc1C (centres undefined) | inconclusive: 25.9 µM [inhibitor, single point] | – |
| O=C(NCCc1ccccc1)C1CCCN(S(=O)(=O)c2cccc3nsnc23)C1 (centres undefined) | inconclusive: 29.1 µM [inhibitor, single point] | – |
| O=C(O)C(Cc1ccccc1)N=C(NS(=O)(=O)c1ccccc1)c1ccccc1 (centres undefined) | – | inactive: 2.81% |
| COc1ccc(-n2nc3c(N4CCC(C(=O)NCC(C)c5ccccc5)CC4)nnc(C)c3c2C)cc1 (centres undefined) | – | inactive: -22.2% |
| Cc1ccc(Sc2nc3c(c(=O)[nH]c(=O)n3C)n2CCc2ccccc2)cc1 | inconclusive: 23.1 µM [inhibitor, partial curve] | – |
| CC(/C=N/n1c(COc2ccccc2)n[nH]c1=S)=C\c1ccccc1 | – | inactive: 0.821% |
| CCCS(=O)(=O)N1CCC(C(=O)NCCc2ccccc2)CC1 | inconclusive: 14.6 µM [activator, partial curve] | – |
| CCOC(=O)c1sc2nc(C)nc(NCc3ccc(Cl)cc3)c2c1C | active: 11.6 µM | – |
| N#Cc1ccc(CSc2nnc(-c3c[nH]c4ccccc34)n2-c2ccccc2)cc1 | inconclusive: 23.1 µM [inhibitor, single point] | – |
| O=C(O)c1ccc(CS(=O)(=O)c2ccc(Br)cc2)cc1 | – | inactive: 12.8% |
| Cc1c(CC(=O)NCCC(=O)O)c(=O)oc2cc3oc4c(c3cc12)CCCC4 | inconclusive: 29.1 µM [activator, single point] | – |
| C=CCn1c(=NC(=O)C2COc3ccccc3O2)sc2cc(S(N)(=O)=O)ccc21 (centres undefined) | inconclusive: 25.9 µM [inhibitor, partial curve, poor fit] | – |
| COc1cc(N)c(Cl)cc1C(=O)OCC(=O)Nc1ccc(N2CCOCC2)cc1 | inconclusive: 8.2 µM [inhibitor, partial curve, poor fit] | – |
| COc1ccc(NC(=O)c2cc(-c3ccccc3)on2)cc1OC | inconclusive: 1 µM [activator, full curve, poor fit] | – |
| CCOc1cc(/C=N/NC(=O)Cc2ccc(C(F)(F)F)cc2[N+](=O)[O-])c(Br)cc1OC | – | inactive: -0.863% |
| COc1cc(/C=C2\C(=N)N3N=CSC3=NC2=O)ccc1OS(=O)(=O)c1ccccc1[N+](=O)[O-] | inconclusive: 1.16 µM [inhibitor, single point] | – |
| O=C(CCC1CCCC1)Nc1cc(Cl)ccc1N1CCOCC1 | – | inactive: -0.802% |
| Cc1cccc(NC(=O)N2CCC(C(=O)c3ccc(F)cc3)CC2)c1 | – | inactive: -20.1% |
| COc1ccc(-n2c(COc3ccccc3)nnc2SCc2ccc(C#N)cc2)cc1 | inconclusive: 8.2 µM [inhibitor, single point] | – |
| COc1ccc(C(=O)Nc2cc3c4c(c2)C(C)C(=O)N4CCC3)cc1 (centres undefined) | inconclusive: 25.9 µM [activator, single point] | – |
| CSc1cccc(NC(=O)C2CCN(S(=O)(=O)c3ccc4c(c3)NC(=O)CO4)CC2)c1 | – | inactive: -1.17% |
| COc1ccc(C2Nc3ccccc3C(=O)N2C2CCCCC2)cc1 (centres undefined) | inconclusive: 18.3 µM [activator, partial curve] | – |

4 structures from above, arranged by count of non-hydrogen atoms, low to high.

| SMILES | Potency | activity change, negative = inhibition |
| --- | --- | --- |
| CCCS(=O)(=O)N1CCC(C(=O)NCCc2ccccc2)CC1 | inconclusive: 14.6 µM [activator, partial curve] | – |
| O=C(O)C(Cc1ccccc1)N=C(NS(=O)(=O)c1ccccc1)c1ccccc1 (centres undefined) | – | inactive: 2.81% |
| N#Cc1ccc(CSc2nnc(-c3c[nH]c4ccccc34)n2-c2ccccc2)cc1 | inconclusive: 23.1 µM [inhibitor, single point] | – |
| COc1cc(/C=C2\C(=N)N3N=CSC3=NC2=O)ccc1OS(=O)(=O)c1ccccc1[N+](=O)[O-] | inconclusive: 1.16 µM [inhibitor, single point] | – |
